Test results from the supplement of paper PMC12595434, “Development of retinoid nuclear receptor pathway antagonists through targeting aldehyde dehydrogenase 1A3” (iScience, 2025).
The list shows a part of the results. This is a noisy data set.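 Many melting curves are irregular; where none melted, Tm was taken as 64 °C.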

By UniProt entry, the sequences of proteins in these tests, tags left out. Where a name states a change or a piece, a line headed by the entry shows the natural chain unless it says otherwise.
UniProt Q14141: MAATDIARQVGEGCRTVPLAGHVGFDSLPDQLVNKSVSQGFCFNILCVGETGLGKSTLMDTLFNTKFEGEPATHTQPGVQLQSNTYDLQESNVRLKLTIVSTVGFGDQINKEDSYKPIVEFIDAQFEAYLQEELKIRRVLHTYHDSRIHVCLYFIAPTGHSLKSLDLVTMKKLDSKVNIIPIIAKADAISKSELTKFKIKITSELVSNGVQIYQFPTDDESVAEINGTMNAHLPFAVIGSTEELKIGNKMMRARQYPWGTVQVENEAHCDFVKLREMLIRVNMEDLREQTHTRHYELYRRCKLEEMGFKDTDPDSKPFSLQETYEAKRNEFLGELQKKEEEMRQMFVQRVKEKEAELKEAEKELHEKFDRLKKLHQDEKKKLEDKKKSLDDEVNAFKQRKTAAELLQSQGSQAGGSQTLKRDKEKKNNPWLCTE
UniProt Q13795: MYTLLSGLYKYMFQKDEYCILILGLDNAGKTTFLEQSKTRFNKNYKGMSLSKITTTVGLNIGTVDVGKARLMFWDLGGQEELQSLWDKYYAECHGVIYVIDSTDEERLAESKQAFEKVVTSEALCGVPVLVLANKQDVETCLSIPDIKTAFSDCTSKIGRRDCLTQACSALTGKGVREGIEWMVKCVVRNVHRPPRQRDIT
UniProt Q14142: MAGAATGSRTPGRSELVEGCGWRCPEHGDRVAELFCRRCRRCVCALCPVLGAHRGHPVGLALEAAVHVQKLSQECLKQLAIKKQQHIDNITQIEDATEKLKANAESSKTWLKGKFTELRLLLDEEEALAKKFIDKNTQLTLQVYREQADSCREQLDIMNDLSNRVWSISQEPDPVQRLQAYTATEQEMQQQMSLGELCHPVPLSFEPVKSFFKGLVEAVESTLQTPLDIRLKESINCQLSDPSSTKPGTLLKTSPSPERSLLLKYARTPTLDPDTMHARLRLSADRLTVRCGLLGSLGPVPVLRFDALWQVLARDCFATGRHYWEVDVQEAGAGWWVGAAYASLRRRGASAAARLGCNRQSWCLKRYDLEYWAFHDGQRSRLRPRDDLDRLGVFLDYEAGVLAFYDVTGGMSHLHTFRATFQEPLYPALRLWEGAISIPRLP
UniProt Q14318: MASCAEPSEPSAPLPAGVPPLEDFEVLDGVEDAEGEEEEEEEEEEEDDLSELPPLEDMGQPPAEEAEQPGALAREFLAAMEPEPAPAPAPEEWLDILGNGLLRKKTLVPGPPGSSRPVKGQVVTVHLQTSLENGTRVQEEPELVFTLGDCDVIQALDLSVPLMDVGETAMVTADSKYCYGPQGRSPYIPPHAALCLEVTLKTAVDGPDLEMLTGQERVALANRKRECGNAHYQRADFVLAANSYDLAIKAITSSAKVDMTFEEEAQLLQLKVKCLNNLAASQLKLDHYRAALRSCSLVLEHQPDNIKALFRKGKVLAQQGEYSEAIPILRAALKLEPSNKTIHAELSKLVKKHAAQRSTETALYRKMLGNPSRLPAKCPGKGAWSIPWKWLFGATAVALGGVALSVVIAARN
UniProt Q13671: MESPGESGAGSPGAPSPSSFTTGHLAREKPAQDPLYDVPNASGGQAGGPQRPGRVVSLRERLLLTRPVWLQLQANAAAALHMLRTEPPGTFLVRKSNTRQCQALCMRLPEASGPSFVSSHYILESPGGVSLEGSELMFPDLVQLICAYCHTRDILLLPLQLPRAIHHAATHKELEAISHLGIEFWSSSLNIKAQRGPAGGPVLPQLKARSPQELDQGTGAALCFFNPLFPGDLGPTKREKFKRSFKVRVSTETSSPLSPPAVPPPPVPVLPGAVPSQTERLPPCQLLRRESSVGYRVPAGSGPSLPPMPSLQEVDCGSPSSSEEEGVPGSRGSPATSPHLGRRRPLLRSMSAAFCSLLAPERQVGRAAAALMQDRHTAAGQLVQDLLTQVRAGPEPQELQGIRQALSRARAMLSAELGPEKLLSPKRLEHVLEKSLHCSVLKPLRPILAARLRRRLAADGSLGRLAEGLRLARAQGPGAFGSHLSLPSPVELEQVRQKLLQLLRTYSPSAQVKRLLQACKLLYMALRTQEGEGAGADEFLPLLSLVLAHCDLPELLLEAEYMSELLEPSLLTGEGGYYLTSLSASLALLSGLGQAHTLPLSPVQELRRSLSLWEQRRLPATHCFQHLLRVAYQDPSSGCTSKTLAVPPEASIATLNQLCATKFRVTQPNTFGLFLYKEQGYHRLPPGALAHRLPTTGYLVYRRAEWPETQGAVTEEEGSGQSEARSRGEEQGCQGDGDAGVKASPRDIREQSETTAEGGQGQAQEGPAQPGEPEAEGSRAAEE
UniProt Q13454: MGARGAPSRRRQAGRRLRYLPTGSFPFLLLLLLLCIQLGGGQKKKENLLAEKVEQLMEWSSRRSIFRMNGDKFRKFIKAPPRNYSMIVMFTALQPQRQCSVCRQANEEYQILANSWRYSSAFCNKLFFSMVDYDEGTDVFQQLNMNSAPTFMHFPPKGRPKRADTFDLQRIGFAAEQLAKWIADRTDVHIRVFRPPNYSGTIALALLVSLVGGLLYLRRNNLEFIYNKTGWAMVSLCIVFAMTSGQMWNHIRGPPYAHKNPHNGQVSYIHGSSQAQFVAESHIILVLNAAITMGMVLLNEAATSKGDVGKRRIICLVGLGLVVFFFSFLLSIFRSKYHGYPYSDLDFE
UniProt Q14155: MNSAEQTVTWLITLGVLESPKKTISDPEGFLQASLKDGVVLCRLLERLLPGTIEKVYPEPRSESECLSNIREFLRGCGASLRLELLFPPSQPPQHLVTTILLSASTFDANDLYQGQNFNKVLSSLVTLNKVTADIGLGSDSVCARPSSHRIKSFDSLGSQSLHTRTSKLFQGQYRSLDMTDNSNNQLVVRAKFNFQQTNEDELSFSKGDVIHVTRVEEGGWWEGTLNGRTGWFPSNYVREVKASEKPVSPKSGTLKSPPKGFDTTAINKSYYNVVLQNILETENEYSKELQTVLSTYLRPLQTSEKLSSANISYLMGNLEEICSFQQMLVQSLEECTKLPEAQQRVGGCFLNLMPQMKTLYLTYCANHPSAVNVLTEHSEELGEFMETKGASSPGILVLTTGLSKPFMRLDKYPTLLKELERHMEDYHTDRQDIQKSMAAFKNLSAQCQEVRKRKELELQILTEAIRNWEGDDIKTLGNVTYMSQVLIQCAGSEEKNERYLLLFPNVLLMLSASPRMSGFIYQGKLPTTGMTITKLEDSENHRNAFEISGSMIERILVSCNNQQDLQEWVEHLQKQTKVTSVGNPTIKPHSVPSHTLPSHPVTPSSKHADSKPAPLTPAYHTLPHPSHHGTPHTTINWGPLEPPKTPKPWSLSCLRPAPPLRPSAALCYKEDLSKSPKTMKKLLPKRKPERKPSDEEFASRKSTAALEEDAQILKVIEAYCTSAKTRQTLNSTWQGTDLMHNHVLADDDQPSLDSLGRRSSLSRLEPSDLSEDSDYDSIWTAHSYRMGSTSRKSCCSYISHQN
UniProt Q14232, whole entry: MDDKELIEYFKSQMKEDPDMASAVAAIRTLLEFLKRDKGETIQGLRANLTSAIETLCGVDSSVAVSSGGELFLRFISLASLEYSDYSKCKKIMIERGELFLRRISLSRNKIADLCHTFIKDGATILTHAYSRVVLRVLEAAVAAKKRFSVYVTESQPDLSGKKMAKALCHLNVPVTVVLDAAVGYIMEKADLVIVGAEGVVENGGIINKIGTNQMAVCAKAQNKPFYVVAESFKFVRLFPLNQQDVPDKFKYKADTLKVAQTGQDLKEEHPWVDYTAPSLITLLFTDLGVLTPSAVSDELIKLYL
UniProt Q14C86: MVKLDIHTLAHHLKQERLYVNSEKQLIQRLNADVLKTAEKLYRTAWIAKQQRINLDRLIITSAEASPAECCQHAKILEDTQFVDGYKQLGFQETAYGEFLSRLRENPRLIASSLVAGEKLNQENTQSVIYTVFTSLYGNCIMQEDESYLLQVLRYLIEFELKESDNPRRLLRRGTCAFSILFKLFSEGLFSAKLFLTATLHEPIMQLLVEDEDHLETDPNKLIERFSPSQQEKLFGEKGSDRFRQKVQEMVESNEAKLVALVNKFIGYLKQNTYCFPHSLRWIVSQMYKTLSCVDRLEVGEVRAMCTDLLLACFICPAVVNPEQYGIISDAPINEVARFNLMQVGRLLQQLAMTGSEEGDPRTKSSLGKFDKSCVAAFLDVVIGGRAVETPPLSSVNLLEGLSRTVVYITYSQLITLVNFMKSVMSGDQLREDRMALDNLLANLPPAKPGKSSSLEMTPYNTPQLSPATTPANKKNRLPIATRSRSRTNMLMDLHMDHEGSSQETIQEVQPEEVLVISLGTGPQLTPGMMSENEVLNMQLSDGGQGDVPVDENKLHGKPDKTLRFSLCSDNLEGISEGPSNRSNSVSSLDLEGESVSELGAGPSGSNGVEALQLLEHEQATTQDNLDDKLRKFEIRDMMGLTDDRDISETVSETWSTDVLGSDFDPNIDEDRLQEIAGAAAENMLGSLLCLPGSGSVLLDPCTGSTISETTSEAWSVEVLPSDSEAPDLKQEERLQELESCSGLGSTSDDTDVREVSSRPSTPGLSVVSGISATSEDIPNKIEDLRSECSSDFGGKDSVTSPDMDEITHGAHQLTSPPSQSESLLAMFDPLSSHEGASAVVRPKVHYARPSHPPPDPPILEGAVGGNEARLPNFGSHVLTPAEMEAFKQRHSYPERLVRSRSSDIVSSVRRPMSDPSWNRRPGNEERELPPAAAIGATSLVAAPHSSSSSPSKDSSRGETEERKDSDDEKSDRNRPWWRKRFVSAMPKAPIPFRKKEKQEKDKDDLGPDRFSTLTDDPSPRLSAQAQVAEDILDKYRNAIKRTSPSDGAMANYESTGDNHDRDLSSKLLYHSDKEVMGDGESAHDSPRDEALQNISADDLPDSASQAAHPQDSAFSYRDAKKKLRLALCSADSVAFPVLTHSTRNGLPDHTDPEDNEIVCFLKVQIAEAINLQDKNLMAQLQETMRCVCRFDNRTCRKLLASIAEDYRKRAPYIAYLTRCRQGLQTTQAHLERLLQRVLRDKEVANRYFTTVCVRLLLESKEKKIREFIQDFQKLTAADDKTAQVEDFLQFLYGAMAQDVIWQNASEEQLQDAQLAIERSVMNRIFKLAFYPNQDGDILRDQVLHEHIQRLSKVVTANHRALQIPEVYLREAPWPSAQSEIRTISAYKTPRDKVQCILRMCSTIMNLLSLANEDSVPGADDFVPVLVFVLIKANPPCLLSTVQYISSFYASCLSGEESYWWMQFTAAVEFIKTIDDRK
UniProt Q13617, whole entry: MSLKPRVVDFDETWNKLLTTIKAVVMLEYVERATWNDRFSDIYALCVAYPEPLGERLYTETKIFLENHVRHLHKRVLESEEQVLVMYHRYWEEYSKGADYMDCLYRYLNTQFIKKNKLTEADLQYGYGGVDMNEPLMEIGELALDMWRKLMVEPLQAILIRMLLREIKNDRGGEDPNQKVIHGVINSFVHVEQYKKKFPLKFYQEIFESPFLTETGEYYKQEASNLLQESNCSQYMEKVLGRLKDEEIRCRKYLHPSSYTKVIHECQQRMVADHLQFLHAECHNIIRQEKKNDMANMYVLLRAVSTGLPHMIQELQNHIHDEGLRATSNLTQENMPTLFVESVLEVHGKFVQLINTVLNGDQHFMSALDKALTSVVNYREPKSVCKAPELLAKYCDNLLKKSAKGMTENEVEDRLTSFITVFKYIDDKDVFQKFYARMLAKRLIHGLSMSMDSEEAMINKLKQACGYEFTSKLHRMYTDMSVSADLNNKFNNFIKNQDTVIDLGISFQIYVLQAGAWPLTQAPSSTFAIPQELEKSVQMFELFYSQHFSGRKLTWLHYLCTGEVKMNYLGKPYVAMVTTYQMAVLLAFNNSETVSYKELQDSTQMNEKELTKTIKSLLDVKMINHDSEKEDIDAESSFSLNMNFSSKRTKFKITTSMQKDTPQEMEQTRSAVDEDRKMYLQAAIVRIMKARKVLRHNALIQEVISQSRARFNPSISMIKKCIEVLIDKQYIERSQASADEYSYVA
UniProt Q13503: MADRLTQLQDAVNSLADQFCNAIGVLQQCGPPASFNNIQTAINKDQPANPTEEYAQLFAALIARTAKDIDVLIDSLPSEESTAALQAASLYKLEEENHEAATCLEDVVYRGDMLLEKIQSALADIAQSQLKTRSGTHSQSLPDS
UniProt Q13347, whole entry: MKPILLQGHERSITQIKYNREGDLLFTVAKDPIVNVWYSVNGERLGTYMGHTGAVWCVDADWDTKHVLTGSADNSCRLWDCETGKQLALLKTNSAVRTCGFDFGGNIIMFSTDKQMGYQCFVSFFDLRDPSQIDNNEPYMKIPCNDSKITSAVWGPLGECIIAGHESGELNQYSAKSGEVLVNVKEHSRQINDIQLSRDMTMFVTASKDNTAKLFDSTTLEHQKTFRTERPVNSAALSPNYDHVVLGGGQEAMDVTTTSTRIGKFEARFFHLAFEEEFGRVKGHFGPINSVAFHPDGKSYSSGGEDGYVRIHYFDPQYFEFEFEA

What follows are targets tested with CCc1cnccc1C(=O)Nc1cc2c(cc1F)NC(=O)CC2 (assay: melting temperature shift (DMSO Tm minus MBE1-treated Tm) in cellular thermal proteome profiling; higher = less thermal stabilization by MBE1 (negative = stabilized by MBE1)). Conditions: A375; MBE1 concentration: 100 nM.

Target	melting temperature shift [°C]
EFTUD2 (UniProt Q15029)	-0.821
ROCK1 (UniProt Q13464)	1.06
UniProt Q14938	0.148
FADD (UniProt Q13158)	-0.452
UniProt Q14141	0.998
MTX1 (UniProt Q13505)	-0.516
ARFRP1 (UniProt Q13795)	-0.852
POLA2 (UniProt Q14181)	-0.047
NCAPD2 (UniProt Q15021)	-0.923
UniProt Q13216	1.64
UniProt Q14142	-1.45
FKBP8 (UniProt Q14318)	0.0141
RIN1 (UniProt Q13671)	-0.184
UniProt Q13454	-0.577
ARHGEF7 (UniProt Q14155)	-0.532
FLNC (UniProt Q14315)	-0.287
EIF2B1 (UniProt Q14232)	-1.44
GAPVD1 (UniProt Q14C86)	0.0188
MTMR2 (UniProt Q13614)	-0.83

Target	melting temperature shift [°C]
MTA1 (UniProt Q13330)	-1.33
MCM6 (UniProt Q14566)	0.232
NNT (UniProt Q13423)	-0.443
SNTB1 (UniProt Q13884)	-1.04
CUL2 (UniProt Q13617)	-0.49
CHAF1B (UniProt Q13112)	-1.32
UniProt Q13077	-1.36
UniProt Q14686	-1.63
CKAP5 (UniProt Q14008)	-0.56
OS9 (UniProt Q13438)	-2.08
UniProt Q13469	-1.35
IDI1 (UniProt Q13907)	-1.05
UniProt Q14156	-0.055
UniProt Q13503	1.32
RIPK1 (UniProt Q13546)	-0.39
UniProt Q14533	-3.46
MDC1 (UniProt Q14676)	-0.238
EIF3I (UniProt Q13347)	-0.442
HNRNPA0 (UniProt Q13151)	-0.314

Same assay, conditions: A375; MBE1 concentration: 1 uM

Target	melting temperature shift [°C]
EFTUD2 (UniProt Q15029)	-0.868
ROCK1 (UniProt Q13464)	0.0977
UniProt Q14938	1.31
FADD (UniProt Q13158)	0.282
UniProt Q14141	1.2
MTX1 (UniProt Q13505)	0.202
ARFRP1 (UniProt Q13795)	-0.845
POLA2 (UniProt Q14181)	-0.71
NCAPD2 (UniProt Q15021)	-0.511
UniProt Q13216	2.18
UniProt Q14142	-1.3
FKBP8 (UniProt Q14318)	-0.127
RIN1 (UniProt Q13671)	-0.327
UniProt Q13454	-0.429
ARHGEF7 (UniProt Q14155)	-0.772
FLNC (UniProt Q14315)	-0.208
EIF2B1 (UniProt Q14232)	0.336
GAPVD1 (UniProt Q14C86)	-0.305
MTMR2 (UniProt Q13614)	-0.11

Target	melting temperature shift [°C]
MTA1 (UniProt Q13330)	-0.0448
MCM6 (UniProt Q14566)	0.434
NNT (UniProt Q13423)	-0.355
SNTB1 (UniProt Q13884)	-0.795
CUL2 (UniProt Q13617)	0.208
CHAF1B (UniProt Q13112)	-0.794
UniProt Q13077	0.745
UniProt Q14686	-0.513
CKAP5 (UniProt Q14008)	-0.508
OS9 (UniProt Q13438)	0.865
UniProt Q13469	-0.661
IDI1 (UniProt Q13907)	1.23
UniProt Q14156	0.195
UniProt Q13503	5.29
RIPK1 (UniProt Q13546)	-0.32
UniProt Q14533	-10.1
MDC1 (UniProt Q14676)	0.653
EIF3I (UniProt Q13347)	-0.489
HNRNPA0 (UniProt Q13151)	-0.628
